Source: paper doi:10.1101/2025.09.06.674610
No constants are given. Whether binding was seen depends on the method and setting. In cells and extracts the contact can be indirect. For part of these data: A result given as binding can be weak or reduced; the word gives no strength.

Chains of the proteins cited; added tags and fusions are not shown.
UniProt Q39026: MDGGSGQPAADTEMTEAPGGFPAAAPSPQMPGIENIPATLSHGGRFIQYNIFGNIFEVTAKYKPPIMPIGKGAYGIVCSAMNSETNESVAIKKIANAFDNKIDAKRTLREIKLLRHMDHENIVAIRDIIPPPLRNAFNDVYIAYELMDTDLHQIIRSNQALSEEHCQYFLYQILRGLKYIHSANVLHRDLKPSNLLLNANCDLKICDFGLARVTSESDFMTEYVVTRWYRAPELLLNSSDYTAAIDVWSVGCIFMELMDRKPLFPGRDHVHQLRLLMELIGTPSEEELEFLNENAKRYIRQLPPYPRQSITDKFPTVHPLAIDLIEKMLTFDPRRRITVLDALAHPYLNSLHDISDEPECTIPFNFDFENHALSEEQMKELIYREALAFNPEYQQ

What was measured:
[1] = biological target: AtMPK6, split-YFP fusion for BiFC (Arabidopsis thaliana) (UniProt Q39026); experiment: split reporter
[2] = biological target: HvTOL8 (barley TOM1-like protein 8), split-YFP fusion for BiFC (barley (Hordeum vulgare)); experiment: split reporter

| binding [1] | binding [2] | Substance |
| --- | --- | --- |
| no binding | binds weakly | HvTOL1 (barley TOM1-like protein 1), split-YFP fusion for BiFC (from UniProt A0A8I6YCT7) |
| no binding |  | HvTOL8 (barley TOM1-like protein 8), split-YFP fusion for BiFC (from UniProt A0A8I6YP48) |
